No constants are given. Whether binding was seen depends on the method and setting. Binding seen in cells or lysates may run through a third protein. Some results given as binding are weak or reduced against the parent protein; the word gives no strength.

Protein sequences, listed by entry. Tags and fused reporters are not part of them. Residues count along the entry.
UniProt Q63604, residues 32-821: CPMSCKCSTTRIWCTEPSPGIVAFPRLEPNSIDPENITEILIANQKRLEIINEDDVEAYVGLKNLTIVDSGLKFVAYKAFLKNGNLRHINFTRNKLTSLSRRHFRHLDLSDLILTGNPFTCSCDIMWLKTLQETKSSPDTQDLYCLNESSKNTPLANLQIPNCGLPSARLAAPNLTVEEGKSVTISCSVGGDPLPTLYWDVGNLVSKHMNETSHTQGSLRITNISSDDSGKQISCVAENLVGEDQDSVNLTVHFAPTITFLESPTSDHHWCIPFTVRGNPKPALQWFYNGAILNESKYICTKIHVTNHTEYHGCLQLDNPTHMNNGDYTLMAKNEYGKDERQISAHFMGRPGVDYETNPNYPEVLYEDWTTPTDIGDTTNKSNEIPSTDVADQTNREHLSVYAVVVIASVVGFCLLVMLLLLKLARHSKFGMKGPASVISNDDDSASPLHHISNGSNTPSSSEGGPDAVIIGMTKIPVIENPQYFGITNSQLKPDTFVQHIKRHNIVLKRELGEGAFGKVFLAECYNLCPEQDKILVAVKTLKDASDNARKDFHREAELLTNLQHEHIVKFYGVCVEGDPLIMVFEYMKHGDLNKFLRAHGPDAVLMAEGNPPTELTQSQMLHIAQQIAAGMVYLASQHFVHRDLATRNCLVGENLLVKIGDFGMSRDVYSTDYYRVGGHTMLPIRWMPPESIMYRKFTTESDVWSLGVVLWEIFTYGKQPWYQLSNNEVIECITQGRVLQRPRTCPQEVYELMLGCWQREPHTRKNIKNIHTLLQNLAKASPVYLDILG
UniProt E9PT20: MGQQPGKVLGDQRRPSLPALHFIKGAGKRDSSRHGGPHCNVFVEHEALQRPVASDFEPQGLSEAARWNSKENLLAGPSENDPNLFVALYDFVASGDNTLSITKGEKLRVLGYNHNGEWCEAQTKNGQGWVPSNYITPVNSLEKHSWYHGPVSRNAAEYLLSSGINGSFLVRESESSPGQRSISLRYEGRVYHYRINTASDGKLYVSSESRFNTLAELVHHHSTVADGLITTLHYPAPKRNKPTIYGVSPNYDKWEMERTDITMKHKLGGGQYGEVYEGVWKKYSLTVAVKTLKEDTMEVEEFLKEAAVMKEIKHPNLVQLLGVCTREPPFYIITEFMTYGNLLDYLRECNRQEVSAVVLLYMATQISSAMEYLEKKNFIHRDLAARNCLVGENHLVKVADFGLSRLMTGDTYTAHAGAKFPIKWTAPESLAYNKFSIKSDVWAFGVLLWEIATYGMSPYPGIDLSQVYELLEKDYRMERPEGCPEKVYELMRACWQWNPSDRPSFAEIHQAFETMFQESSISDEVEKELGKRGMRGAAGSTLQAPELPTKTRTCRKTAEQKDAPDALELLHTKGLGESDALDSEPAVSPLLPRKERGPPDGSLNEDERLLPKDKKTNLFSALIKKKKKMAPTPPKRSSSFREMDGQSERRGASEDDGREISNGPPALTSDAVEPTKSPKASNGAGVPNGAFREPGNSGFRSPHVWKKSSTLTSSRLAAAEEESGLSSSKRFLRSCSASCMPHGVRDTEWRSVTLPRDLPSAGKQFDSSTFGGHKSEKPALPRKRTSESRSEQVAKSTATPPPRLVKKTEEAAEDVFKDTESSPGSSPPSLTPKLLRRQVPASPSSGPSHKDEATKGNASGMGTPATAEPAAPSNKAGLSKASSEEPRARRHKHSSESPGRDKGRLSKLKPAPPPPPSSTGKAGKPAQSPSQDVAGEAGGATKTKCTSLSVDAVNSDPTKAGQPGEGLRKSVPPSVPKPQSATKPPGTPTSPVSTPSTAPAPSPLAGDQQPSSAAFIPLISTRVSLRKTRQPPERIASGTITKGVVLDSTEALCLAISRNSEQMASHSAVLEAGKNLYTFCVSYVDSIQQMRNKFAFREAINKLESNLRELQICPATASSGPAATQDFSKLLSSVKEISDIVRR

Test [1] deals with TrkB receptor (rat (endogenous in hippocampal neurons)) (UniProt Q63604). Briefly: co-IP; as a1, but neurons not stimulated with BDNF (control).
The target is the same in test [2]. Briefly: co-IP; 7 DIV rat hippocampal neurons stimulated with 50 ng/mL BDNF for 1 h; lysis in 20 mM Tris, 150 mM NaCl, 10% glycerol, 1% Igepal, 2 mM EDTA; 300-500 ug lysate with 2 ug anti-c-Abl (K12) or anti-TrkB (Millipore) overnight at 4 C; protein G-Plus agarose; western blot.

As to “c-Abl tyrosine kinase (from UniProt E9PT20 1-1143) (enzyme)”, the binding result in test [1] is “no binding (condition: neurons without BDNF stimulation)”; in test [2], “binds”.
